# Patent publication EP4556004A1 (priority 2023, dated 2025)
# For at least one compound, name, drawing or mass did not settle the structure.
# Tests used:
# MERS-CoV = format: cell-based, Middle-East respiratory syndrome coronavirus; conditions: Calu-3 cells, MOI 0.3, 1.56-12.5 µM, 1 h + 15 h, dose-dependent
# SARS-CoV = format: cell-based, severe acute respiratory syndrome coronavirus; conditions: Calu-3 cells, MOI 0.3, 1.56-12.5 µM, 1 h + 15 h, dose-dependent
smiles,measurement,setting,value
"CC(C)=CCC1=C(O)C(C(=O)C(C)C)=C(O)C(CC=C(C)C)(CC=C(C)C)C1=O [Colupulone, Co-lupulone]",reduction of MERS-CoV infectious titers,MERS-CoV,more than 1 × Log10 or 2 × Log10
same,reduction of SARS-CoV infectious titers,SARS-CoV,more than 1 × Log10 or 2 × Log10
